Measurements reported in patent US4748116A, “Peptide substrates for determination of protease activity” (KabiVitrum AB, priority 1980, dated 1988).
Where a name gives a salt, the structure may show the parent alone. Not every detail of the peptide structures is certain; ends, links or a residue may be inferred.

Details: 10^-4 substrate in tris buffer pH 8.3, I=0.3, 25° C.

With `CC(C)C[C@H](NC(=O)[C@@H](NC(=O)OC(C)(C)C)C(C)C)C(=O)N[C@@H](CCCCN)C(=O)Nc1ccc2c(=O)[nH][nH]c(=O)c2c1` [XXI, Boc--Val--Leu--Lys--Isl.HCl] as the molecule, how does the Spontaneous hydrolysis read?
Its Spontaneous hydrolysis is 0.03 % per hour.
